Test results from patent US20020155533A1 (Takeda / Millennium, published 2002).
These are yes or no findings as the source states them, for the method shown. Some entries that bind do so weakly or less than the wild type.

Sequences of proteins named here, by UniProt entry; tags and fusion partners are left off. A change or cut given only in a name is not applied to a line headed by its entry. Residues count along the entry.
UniProt Q29627: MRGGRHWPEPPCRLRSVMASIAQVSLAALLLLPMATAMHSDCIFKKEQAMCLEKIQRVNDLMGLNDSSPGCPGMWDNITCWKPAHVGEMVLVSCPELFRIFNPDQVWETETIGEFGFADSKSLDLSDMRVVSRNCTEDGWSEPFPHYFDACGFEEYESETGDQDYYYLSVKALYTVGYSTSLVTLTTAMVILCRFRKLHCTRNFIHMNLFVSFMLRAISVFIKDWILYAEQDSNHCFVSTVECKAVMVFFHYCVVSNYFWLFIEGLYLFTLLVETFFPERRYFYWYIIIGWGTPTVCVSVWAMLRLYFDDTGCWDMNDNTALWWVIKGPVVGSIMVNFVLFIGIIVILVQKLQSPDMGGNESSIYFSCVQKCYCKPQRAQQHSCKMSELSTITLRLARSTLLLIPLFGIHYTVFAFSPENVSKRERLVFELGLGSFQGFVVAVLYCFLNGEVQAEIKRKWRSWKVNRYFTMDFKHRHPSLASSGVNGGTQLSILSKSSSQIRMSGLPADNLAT
UniProt P01282, residues 125-152: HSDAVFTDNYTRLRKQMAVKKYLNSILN

Target: bovine PACAP receptor protein Type I-A encoded by pBPR-T, expressed in CHO cells (bovine) (UniProt Q29627)
Assay: competition with 100 pM [125I]-PACAP27, membrane fraction of pBPR-T CHO transformants (FIG. 35)

- binding: binds
Substance: VIP (vasoactive intestinal peptide) (from UniProt P01282 125-152)
